From the supplement of paper PMC11006884
This list holds what a sample rich in targets with a hit left over. Single values of this set are uncertain. The list shows a part of the results, in another mix than the full data.

Amino acid sequences for entries named in this document (tags omitted). A change or cut given only in a name is not applied to a line headed by its entry.
UniProt Q9C0C9: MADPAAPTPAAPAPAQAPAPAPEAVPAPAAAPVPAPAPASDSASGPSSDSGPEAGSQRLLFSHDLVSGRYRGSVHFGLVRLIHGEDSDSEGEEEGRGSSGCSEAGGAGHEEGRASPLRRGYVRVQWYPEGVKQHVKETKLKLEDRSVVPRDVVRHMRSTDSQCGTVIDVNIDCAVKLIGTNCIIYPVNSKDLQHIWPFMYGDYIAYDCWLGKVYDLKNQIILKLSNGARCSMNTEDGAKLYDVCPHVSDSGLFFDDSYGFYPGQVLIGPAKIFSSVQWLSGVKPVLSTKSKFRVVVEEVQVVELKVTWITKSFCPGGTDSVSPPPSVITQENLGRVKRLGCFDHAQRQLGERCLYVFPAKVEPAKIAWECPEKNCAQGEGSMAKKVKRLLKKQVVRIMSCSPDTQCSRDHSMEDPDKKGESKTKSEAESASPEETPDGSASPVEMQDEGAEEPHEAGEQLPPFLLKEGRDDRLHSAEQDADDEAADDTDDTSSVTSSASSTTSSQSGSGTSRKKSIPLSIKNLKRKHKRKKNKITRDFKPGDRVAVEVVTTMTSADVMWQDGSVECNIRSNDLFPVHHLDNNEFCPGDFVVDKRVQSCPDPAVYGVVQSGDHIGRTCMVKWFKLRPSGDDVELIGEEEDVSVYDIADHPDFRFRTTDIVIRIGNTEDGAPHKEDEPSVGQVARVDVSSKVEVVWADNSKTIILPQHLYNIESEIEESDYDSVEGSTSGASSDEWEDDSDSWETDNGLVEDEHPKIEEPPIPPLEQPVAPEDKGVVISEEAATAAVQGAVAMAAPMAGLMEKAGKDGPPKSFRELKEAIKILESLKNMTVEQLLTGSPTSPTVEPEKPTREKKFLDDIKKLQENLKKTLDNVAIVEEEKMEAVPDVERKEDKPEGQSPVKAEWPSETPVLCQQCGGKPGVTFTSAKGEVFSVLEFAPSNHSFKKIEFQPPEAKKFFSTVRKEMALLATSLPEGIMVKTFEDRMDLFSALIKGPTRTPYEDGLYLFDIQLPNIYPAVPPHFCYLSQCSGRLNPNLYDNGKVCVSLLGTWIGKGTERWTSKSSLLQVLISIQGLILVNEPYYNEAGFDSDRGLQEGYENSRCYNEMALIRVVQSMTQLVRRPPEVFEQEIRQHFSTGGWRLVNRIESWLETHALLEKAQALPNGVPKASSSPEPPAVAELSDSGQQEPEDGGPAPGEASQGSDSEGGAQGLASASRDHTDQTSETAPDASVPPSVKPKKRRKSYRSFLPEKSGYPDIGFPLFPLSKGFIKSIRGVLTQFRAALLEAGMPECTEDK
UniProt Q9GZR7: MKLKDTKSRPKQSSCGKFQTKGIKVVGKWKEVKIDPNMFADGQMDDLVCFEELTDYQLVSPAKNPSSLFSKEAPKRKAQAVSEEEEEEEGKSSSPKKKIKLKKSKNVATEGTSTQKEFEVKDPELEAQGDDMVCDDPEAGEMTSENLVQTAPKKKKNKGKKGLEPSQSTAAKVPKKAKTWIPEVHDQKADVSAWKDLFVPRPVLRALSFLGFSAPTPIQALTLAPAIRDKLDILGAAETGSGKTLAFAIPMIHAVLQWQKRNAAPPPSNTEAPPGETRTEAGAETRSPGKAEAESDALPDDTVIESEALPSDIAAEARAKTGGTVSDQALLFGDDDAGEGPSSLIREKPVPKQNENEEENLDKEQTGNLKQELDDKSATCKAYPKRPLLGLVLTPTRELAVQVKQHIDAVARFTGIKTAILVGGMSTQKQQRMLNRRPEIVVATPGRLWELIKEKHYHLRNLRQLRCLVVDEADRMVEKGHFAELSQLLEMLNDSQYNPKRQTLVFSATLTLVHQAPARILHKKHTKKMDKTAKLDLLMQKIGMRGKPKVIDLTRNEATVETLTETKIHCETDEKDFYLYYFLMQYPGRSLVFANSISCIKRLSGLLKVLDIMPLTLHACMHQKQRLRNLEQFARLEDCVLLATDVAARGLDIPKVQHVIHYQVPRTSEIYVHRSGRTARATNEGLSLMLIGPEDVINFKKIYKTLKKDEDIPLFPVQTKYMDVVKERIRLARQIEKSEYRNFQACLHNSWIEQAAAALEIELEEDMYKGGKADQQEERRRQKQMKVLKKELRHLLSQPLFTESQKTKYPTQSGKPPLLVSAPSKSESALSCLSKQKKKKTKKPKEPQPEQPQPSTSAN
UniProt Q9BRS2: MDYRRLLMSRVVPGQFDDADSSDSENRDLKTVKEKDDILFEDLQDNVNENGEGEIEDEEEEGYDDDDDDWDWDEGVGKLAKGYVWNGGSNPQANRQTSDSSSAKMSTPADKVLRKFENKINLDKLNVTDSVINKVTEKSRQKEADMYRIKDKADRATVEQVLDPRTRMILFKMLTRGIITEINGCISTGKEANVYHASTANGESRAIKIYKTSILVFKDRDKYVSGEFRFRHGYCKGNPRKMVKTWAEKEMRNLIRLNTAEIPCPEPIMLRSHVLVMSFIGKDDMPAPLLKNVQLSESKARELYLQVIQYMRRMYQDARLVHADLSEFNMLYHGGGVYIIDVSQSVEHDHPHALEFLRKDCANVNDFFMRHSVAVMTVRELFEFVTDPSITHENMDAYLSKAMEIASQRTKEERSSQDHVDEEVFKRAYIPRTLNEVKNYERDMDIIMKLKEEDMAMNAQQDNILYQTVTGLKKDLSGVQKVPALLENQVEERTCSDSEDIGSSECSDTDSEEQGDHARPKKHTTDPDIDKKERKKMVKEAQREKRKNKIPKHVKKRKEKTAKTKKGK
UniProt Q9BSJ2, whole entry: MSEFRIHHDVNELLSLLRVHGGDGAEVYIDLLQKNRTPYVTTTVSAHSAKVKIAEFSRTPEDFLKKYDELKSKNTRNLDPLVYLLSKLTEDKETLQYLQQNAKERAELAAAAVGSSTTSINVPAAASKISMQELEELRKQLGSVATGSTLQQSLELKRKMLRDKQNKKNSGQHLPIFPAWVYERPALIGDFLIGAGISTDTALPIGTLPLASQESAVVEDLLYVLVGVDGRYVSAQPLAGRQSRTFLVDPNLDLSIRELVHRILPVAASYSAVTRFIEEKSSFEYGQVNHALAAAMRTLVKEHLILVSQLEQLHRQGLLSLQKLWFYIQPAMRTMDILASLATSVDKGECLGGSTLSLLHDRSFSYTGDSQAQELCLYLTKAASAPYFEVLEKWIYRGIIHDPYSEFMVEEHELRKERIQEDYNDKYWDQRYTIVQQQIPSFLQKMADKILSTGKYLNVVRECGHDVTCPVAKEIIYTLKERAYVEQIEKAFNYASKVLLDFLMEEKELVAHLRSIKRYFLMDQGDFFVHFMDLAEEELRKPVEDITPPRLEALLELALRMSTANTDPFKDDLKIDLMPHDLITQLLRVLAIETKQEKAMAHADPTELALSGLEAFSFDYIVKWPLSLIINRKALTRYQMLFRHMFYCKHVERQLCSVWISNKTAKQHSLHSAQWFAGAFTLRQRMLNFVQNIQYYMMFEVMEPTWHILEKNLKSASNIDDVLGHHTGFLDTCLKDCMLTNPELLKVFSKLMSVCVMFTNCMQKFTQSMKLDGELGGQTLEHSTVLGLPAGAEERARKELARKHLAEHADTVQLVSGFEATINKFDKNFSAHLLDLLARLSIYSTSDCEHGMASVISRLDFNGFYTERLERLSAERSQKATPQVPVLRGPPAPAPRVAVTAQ
UniProt Q9BTW9: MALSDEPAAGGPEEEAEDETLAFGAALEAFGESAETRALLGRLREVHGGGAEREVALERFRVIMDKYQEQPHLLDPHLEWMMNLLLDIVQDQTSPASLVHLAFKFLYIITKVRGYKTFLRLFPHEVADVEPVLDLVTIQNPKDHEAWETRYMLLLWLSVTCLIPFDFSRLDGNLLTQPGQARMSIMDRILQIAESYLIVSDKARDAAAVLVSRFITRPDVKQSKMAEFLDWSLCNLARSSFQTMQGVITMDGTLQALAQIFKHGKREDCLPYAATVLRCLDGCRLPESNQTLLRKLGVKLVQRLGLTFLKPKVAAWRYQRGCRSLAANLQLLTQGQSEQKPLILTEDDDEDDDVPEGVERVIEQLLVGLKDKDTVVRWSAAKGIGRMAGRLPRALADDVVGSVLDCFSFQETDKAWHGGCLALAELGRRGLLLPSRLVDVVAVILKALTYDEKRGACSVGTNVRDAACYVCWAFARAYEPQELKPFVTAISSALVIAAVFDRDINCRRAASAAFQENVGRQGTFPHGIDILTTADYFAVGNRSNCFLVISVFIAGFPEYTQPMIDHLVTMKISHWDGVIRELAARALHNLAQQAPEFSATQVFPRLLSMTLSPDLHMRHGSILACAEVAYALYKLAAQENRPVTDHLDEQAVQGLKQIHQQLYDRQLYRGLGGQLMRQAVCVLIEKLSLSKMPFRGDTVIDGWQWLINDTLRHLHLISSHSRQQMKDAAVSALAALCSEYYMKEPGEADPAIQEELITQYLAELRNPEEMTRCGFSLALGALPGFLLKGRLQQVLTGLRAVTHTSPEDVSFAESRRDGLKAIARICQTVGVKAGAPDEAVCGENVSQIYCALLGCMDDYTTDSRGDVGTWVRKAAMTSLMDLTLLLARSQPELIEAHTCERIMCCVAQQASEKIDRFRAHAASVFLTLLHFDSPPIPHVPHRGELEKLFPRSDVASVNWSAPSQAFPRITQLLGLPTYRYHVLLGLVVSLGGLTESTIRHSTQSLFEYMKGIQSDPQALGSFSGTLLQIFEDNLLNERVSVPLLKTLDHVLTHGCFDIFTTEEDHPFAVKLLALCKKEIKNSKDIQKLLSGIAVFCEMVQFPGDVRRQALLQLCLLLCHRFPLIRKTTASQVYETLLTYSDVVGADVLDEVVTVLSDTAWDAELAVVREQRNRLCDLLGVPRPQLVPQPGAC
UniProt Q9BZZ5: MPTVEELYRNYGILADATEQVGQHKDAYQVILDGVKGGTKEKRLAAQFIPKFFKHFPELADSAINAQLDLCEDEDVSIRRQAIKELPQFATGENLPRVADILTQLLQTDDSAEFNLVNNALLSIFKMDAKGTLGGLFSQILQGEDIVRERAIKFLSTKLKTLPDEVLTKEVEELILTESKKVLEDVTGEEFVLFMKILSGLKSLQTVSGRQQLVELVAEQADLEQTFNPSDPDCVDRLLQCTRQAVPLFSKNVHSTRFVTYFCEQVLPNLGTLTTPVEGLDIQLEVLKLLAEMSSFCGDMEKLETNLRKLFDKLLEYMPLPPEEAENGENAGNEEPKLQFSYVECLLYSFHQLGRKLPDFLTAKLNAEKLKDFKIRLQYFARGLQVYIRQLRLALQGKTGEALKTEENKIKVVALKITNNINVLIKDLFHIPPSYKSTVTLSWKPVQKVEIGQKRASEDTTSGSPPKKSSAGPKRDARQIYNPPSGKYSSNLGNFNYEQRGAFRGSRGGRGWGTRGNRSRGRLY
UniProt Q9BZD4: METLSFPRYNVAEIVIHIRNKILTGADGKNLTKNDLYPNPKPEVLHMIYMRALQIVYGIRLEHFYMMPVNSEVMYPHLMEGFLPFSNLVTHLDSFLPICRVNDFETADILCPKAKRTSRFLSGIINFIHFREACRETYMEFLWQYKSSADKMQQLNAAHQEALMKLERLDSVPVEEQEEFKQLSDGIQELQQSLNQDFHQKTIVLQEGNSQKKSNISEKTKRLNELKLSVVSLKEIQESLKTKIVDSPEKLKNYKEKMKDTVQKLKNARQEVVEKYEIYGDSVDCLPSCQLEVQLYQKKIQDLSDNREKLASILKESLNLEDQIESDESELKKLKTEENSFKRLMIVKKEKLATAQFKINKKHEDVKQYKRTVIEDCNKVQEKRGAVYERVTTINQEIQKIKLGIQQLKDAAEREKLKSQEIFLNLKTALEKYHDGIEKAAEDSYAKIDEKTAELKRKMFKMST
UniProt Q9BU76: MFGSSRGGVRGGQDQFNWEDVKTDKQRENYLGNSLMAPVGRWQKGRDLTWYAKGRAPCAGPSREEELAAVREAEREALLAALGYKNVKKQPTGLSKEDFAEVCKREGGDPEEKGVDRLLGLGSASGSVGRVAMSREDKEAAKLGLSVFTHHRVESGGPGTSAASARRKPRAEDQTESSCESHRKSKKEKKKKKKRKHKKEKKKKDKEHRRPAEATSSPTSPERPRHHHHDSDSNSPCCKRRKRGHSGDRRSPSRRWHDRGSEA
UniProt Q9BRP1: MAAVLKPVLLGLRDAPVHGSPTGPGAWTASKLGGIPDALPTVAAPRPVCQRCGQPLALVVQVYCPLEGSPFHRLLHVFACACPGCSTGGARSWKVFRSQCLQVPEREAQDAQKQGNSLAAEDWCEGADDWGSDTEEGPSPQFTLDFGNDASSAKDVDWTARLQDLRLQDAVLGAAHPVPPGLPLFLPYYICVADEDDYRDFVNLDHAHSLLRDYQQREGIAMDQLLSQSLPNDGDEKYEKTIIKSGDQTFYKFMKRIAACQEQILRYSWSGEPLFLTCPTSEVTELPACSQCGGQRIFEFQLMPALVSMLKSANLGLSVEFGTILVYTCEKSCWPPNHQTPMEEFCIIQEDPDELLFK

Compound: COC(=O)/C=C/c1ccccc1 [methyl cinnamate]
Test: log2 ratio of iodoacetamide-alkyne labeling of the cysteine site, DMSO over compound (competition); higher = stronger covalent engagement of the cysteine by the compound, active = 1 or more
Details: 500 µM; treatment time 1 h; system: HEK293T cell lysate
In short: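 Reporter intensities give each cysteine's log2 competition ratio as the mean of control channels over the mean of compound channels. The samples were HEK293T lysate (2 mg/mL) given vehicle or electrophile (500 µM, 1 h, ambient temperature), then iodoacetamide alkyne (1 h), followed by click coupling to sCIP-TMT reagents, pooling, trypsin digestion overnight at 37 °C, streptavidin enrichment, acid elution, Orbitrap Eclipse LC-MS/MS with FAIMS and FragPipe quantification. Duplicate channels and three replicates were run, and cysteines quantified in only one replicate were discarded.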

log2 ratio of iodoacetamide-alkyne labeling, inactive:
UniProt Q9BWC9_C250 0.0843
FYCO1 C318 (UniProt Q9BQS8) -0.118
UBE2O C182 (UniProt Q9C0C9) 0.0311
DDX24 C467 (UniProt Q9GZR7) 0.218
UniProt Q9BTE3_C108 0.197
POLDIP3 C346 (UniProt Q9BY77) 0.0252
UTP14A C380 (UniProt Q9BVJ6) 0.531
RIOK1 C264 (UniProt Q9BRS2) 0.0384
TUBGCP2 C350 (UniProt Q9BSJ2) -0.203
UniProt Q9BW83_C166 -0.039
TNKS1BP1 C1443 (UniProt Q9C0C2) 0.169
UBE2O C400 (UniProt Q9C0C9) -0.0785
TBCD C1175 (UniProt Q9BTW9) 0.0822
API5 C241 (UniProt Q9BZZ5) 0.388
NUF2 C377 (UniProt Q9BZD4) 0.105
UniProt Q9BSD7_C101 0.279
GNB1L C116 (UniProt Q9BYB4) -0.163
RAB3GAP2 C67 (UniProt Q9H2M9) 0.421
DDX24 C746 (UniProt Q9GZR7) 0.206
TBCD C1192 (UniProt Q9BTW9) 0.045
PI4K2A C320 (UniProt Q9BTU6) 0.0313
UBE2O C598 (UniProt Q9C0C9) 0.0969
UBE2O C585 (UniProt Q9C0C9) -0.169
WDR11 C411 (UniProt Q9BZH6) 0.286
UniProt Q9BU76_C179 0.23
HNRNPUL1 C291 (UniProt Q9BUJ2) 0.103
UniProt Q9BTE3_C636 0.382
XPO4 C1149 (UniProt Q9C0E2) -0.201
NAT10 C486 (UniProt Q9H0A0) -0.182
NDFIP1 C15 (UniProt Q9BT67) 0.0412
SLK C358 (UniProt Q9H2G2) 0.308
SLK C993 (UniProt Q9H2G2) 0.169
PDCD2L C278 (UniProt Q9BRP1) 0.245
DDA1 C25 (UniProt Q9BW61) 0.259
TANC1 C1594 (UniProt Q9C0D5) 0.318
PDCD2L C100 (UniProt Q9BRP1) 0.0462
G6PC3 C269 (UniProt Q9BUM1) -0.048
GNL3 C234 (UniProt Q9BVP2) 0.189

Quoted at random: 2 records from the list.
log2 ratio of iodoacetamide-alkyne labeling, inactive:
DDX24 C746 (UniProt Q9GZR7) 0.206
TANC1 C1594 (UniProt Q9C0D5) 0.318
